Read-outs that look alike come from different tables or passages of the source. These are yes or no findings as the source states them, for the method shown. In cells and extracts the contact can be indirect. Some binding calls cover weakened binding; strength is not graded here. Sequences can lack the tags named with a protein.

Amino acid sequences for entries named in this document (tags omitted).
UniProt Q13596: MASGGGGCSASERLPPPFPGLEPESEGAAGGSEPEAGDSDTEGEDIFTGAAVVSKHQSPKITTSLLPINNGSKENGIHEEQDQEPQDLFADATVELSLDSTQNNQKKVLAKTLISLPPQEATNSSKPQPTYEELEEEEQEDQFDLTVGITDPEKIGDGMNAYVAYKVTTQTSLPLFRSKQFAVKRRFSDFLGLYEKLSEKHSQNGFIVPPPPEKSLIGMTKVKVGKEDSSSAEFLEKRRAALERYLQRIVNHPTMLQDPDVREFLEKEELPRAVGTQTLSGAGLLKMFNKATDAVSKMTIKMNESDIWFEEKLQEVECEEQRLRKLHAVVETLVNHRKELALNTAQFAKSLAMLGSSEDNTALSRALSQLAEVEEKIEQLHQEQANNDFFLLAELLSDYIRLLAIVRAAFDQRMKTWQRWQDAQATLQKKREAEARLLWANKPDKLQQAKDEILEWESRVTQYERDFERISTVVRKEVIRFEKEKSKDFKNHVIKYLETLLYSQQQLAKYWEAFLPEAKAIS

We go through two molecules from article PMC11166204, “Mapping the global interactome of the ARF family reveals spatial organization in cellular signaling pathways” (Journal of Cell Science, 2024).

The target of assay [1] is T1, WT ARL14–GFP (human) (UniProt Q8N4G2).
T1 sequence: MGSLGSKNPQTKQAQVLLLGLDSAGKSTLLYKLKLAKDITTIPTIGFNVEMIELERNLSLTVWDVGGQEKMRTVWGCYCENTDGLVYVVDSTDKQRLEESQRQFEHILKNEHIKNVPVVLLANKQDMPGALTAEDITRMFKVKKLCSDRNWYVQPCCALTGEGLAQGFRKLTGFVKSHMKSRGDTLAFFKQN
Nature of the assay: proximity ligation; Duolink PLA on fixed, permeabilised Flp-In HeLa cells expressing ARL14 WT–GFP (GFP alone as control), with overexpressed HA–PLD1 or endogenous SNX1 / SNX6; puncta per cell counted.

In assay [2] the target is T1, WT ARL14–GFP (human). The assay is described as above. The source holds these as a separate data set.

Consider SNX1 (from UniProt Q13596 1-522), for which the binding entry in the assay with WT ARL14–GFP (human) [1] is recorded as “binds”.

B1: HA–PLD1 (enzyme, UniProt Q13393 1-1074)
chain: MSLKNEPRVNTSALQKIAADMSNIIENLDTRELHFEGEEVDYDVSPSDPKIQEVYIPFSAIYNTQGFKEPNIQTYLSGCPIKAQVLEVERFTSTTRVPSINLYTIELTHGEFKWQVKRKFKHFQEFHRELLKYKAFIRIPIPTRRHTFRRQNVREEPREMPSLPRSSENMIREEQFLGRRKQLEDYLTKILKMPMYRNYHATTEFLDISQLSFIHDLGPKGIEGMIMKRSGGHRIPGLNCCGQGRACYRWSKRWLIVKDSFLLYMKPDSGAIAFVLLVDKEFKIKVGKKETETKYGIRIDNLSRTLILKCNSYRHARWWGGAIEEFIQKHGTNFLKDHRFGSYAAIQENALAKWYVNAKGYFEDVANAMEEANEEIFITDWWLSPEIFLKRPVVEGNRWRLDCILKRKAQQGVRIFIMLYKEVELALGINSEYTKRTLMRLHPNIKVMRHPDHVSSTVYLWAHHEKLVIIDQSVAFVGGIDLAYGRWDDNEHRLTDVGSVKRVTSGPSLGSLPPAAMESMESLRLKDKNEPVQNLPIQKSIDDVDSKLKGIGKPRKFSKFSLYKQLHRHHLHDADSISSIDSTSSYFNHYRSHHNLIHGLKPHFKLFHPSSESEQGLTRPHADTGSIRSLQTGVGELHGETRFWHGKDYCNFVFKDWVQLDKPFADFIDRYSTPRMPWHDIASAVHGKAARDVARHFIQRWNFTKIMKSKYRSLSYPFLLPKSQTTAHELRYQVPGSVHANVQLLRSAADWSAGIKYHEESIHAAYVHVIENSRHYIYIENQFFISCADDKVVFNKIGDAIAQRILKAHRENQKYRVYVVIPLLPGFEGDISTGGGNALQAIMHFNYRTMCRGENSILGQLKAELGNQWINYISFCGLRTHAELEGNLVTELIYVHSKLLIADDNTVIIGSANINDRSMLGKRDSEMAVIVQDTETVPSVMDGKEYQAGRFARGLRLQCFRVVLGYLDDPSEDIQDPVSDKFFKEVWVSTAARNATIYDKVFRCLPNDEVHNLIQLRDFINKPVLAKEDPIRAEEELKKIRGFLVQFPFYFLSEESLLPSVGTKEAIVPMEVWT
On to B1, for which the binding entry with WT ARL14–GFP (human) [2] is on record as “binds”.
